Results as given in the supplement of paper PMC7661543.
Differences between knockout arms are mostly noise.

How the values were obtained:
[1] = test system: HCC-38; assay: relative cell number vs DMSO control (72 h) (% of DMSO); higher = less growth inhibition (more cells)
Description: (§1)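 QMAP-Seq: a pool of 5 breast cancer cell lines (ZR-75-1, SKBR3, HCC-38, MDA-MB-231, BT-20), each carrying 12 doxycycline-inducible Cas9 sgRNA perturbations (11 knockouts plus non-targeting sgNT), was treated with compounds for 72 h at four 10-fold doses (10 nM-10 uM or 1 nM-1 uM range). Barcodes were amplified and sequenced, and cell number was interpolated from 293T spike-in standard curves. The result is expressed as % of the median of DMSO wells. Two biological replicates.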

[2] = test system: MDA-MB-231; assay: as above
Description: as §1

c1cc(Nc2cc(C3CC3)[nH]n2)nc(Nc2ccc3nc[nH]c3c2)n1 [APY29]
relative cell number
Details	[1]	[2]
sgRNA knockout: sgATF3, 10 nM	92.6	99.3
sgRNA knockout: sgATF3, 100 nM	61.8	55.3
sgRNA knockout: sgATF3, 1000 nM	28.9	15.7
sgRNA knockout: sgATF3, 10000 nM	22.9	11.2
sgRNA knockout: sgATF4, 10 nM	91.9	134
sgRNA knockout: sgATF4, 100 nM	67.1	55.3
sgRNA knockout: sgATF4, 1000 nM	27.7	22.6
sgRNA knockout: sgATF4, 10000 nM	24.1	16.7
sgRNA knockout: sgATF6, 10 nM	111	69.5
sgRNA knockout: sgATF6, 100 nM	78.9	67.4
sgRNA knockout: sgATF6, 1000 nM	28.9	14.4
sgRNA knockout: sgATF6, 10000 nM	27.9	14.1
sgRNA knockout: sgATG7, 10 nM	93.4	80.7
sgRNA knockout: sgATG7, 100 nM	63.38	55.2
sgRNA knockout: sgATG7, 1000 nM	26.1	16.2
sgRNA knockout: sgATG7, 10000 nM	22.4	13.9
sgRNA knockout: sgERN1, 10 nM	97.5	88.6
sgRNA knockout: sgERN1, 100 nM	66.4	53.1
sgRNA knockout: sgERN1, 1000 nM	26.5	18.2
sgRNA knockout: sgERN1, 10000 nM	24.6	11
sgRNA knockout: sgHSF1, 10 nM	101	78.4
sgRNA knockout: sgHSF1, 100 nM	72.4	52.4
sgRNA knockout: sgHSF1, 1000 nM	26.1	20.2
sgRNA knockout: sgHSF1, 10000 nM	22.2	8.91
sgRNA knockout: sgHSF2, 10 nM	107	101
sgRNA knockout: sgHSF2, 100 nM	65.8	44.1
sgRNA knockout: sgHSF2, 1000 nM	28	14.6
sgRNA knockout: sgHSF2, 10000 nM	30.1	10.7
sgRNA knockout: sgKEAP1, 10 nM	121	108
sgRNA knockout: sgKEAP1, 100 nM	80.3	85.3
sgRNA knockout: sgKEAP1, 1000 nM	34.2	18.9
sgRNA knockout: sgKEAP1, 10000 nM	23.8	11.1
sgRNA knockout: sgNFE2L2, 10 nM	88.9	82.7
sgRNA knockout: sgNFE2L2, 100 nM	60.6	66.3
sgRNA knockout: sgNFE2L2, 1000 nM	27.8	21.3
sgRNA knockout: sgNFE2L2, 10000 nM	23.6	10.8
sgRNA knockout: sgSLC35F2, 10 nM	82	94.3
sgRNA knockout: sgSLC35F2, 100 nM	66.5	54
sgRNA knockout: sgSLC35F2, 1000 nM	31.8	16.3
sgRNA knockout: sgSLC35F2, 10000 nM	24.2	11.3
sgRNA knockout: sgXBP1, 10 nM	98.7	96.7
sgRNA knockout: sgXBP1, 100 nM	65.5	60.5
sgRNA knockout: sgXBP1, 1000 nM	30	18.83
sgRNA knockout: sgXBP1, 10000 nM	24.5	14.2

CN(C)C(=O)c1ccc(S(=O)(=O)c2ccc(NC(=O)[C@@](C)(O)C(F)(F)F)c(Cl)c2)cc1 [AZD7545]
relative cell number
Details	[1]	[2]
sgRNA knockout: sgATF3, 10 nM	103	91.8
sgRNA knockout: sgATF3, 100 nM	88.5	125
sgRNA knockout: sgATF3, 1000 nM	102	84.7
sgRNA knockout: sgATF3, 10000 nM	84.2	90
sgRNA knockout: sgATF4, 10 nM	90.4	114
sgRNA knockout: sgATF4, 100 nM	80.4	95.7
sgRNA knockout: sgATF4, 1000 nM	98.6	72.3
sgRNA knockout: sgATF4, 10000 nM	77.5	120
sgRNA knockout: sgATF6, 10 nM	110	96.7
sgRNA knockout: sgATF6, 100 nM	97.8	88
sgRNA knockout: sgATF6, 1000 nM	98.7	114
sgRNA knockout: sgATF6, 10000 nM	81.3	89.4
sgRNA knockout: sgATG7, 10 nM	104	103
sgRNA knockout: sgATG7, 100 nM	86.7	96.2
sgRNA knockout: sgATG7, 1000 nM	101	87.9
sgRNA knockout: sgATG7, 10000 nM	82.6	87
sgRNA knockout: sgERN1, 10 nM	114	82
sgRNA knockout: sgERN1, 100 nM	94.6	113
sgRNA knockout: sgERN1, 1000 nM	99.8	79.3
sgRNA knockout: sgERN1, 10000 nM	71.7	79.7
sgRNA knockout: sgHSF1, 10 nM	103	107
sgRNA knockout: sgHSF1, 100 nM	101	99.6
sgRNA knockout: sgHSF1, 1000 nM	81.8	91
sgRNA knockout: sgHSF1, 10000 nM	79	85.3
sgRNA knockout: sgHSF2, 10 nM	97.9	96.4
sgRNA knockout: sgHSF2, 100 nM	101	107
sgRNA knockout: sgHSF2, 1000 nM	101	99.7
sgRNA knockout: sgHSF2, 10000 nM	80.5	89.1
sgRNA knockout: sgKEAP1, 10 nM	100	102
sgRNA knockout: sgKEAP1, 100 nM	91.1	83.6
sgRNA knockout: sgKEAP1, 1000 nM	91.6	101
sgRNA knockout: sgKEAP1, 10000 nM	75	76.6
sgRNA knockout: sgNFE2L2, 10 nM	95.9	109
sgRNA knockout: sgNFE2L2, 100 nM	80.7	98.9
sgRNA knockout: sgNFE2L2, 1000 nM	97.5	74.28
sgRNA knockout: sgNFE2L2, 10000 nM	84.1	93
sgRNA knockout: sgSLC35F2, 10 nM	94.6	112
sgRNA knockout: sgSLC35F2, 100 nM	80.1	103
sgRNA knockout: sgSLC35F2, 1000 nM	97.6	91.3
sgRNA knockout: sgSLC35F2, 10000 nM	87.9	87.4
sgRNA knockout: sgXBP1, 10 nM	98.4	96.3
sgRNA knockout: sgXBP1, 100 nM	83.5	99.7
sgRNA knockout: sgXBP1, 1000 nM	107	107
sgRNA knockout: sgXBP1, 10000 nM	80.4	101
